Laboratory results: paper PMC10085060 (Oncotarget, 2023)
Several values for one entry are separate records, joined by “and”; a condition that tells them apart may be missing. Identical values can stand only once.

Experiments:
[1] = Drug related adverse events (CTCAE version 4.0)
[2] = Plasma trough pharmacokinetics of sorafenib and riluzole (LC-MS/MS); conditions: for Riluzole trough plasma concentration, D2 Predose / Riluzole trough plasma concentration, D8/9 Predose / Riluzole trough plasma concentration, D10 Predose / Riluzole trough plasma concentration, D15 Predose: individual patients; for Riluzole Cmin,ss Geometric mean (CV%): average trough level on D8, D10 and D15
Protocol: Following centrifugation for 10 min at 1,500 × g at 4°C within 30 min of blood collection, the plasma was aliquoted and stored at −80°C.

[3] = drug related AE, Grade ≥3, n=35
[4] = drug related AE, any grade, n=35
[5] = Dose Level 1: Sorafenib 200 mg qd and Riluzole 100 mg BID
[6] = Dose Level 2: Sorafenib 200 mg BID and Riluzole 100 mg BID
[7] = Dose Level 3: Sorafenib 400 mg AM, 200 mg PM and Riluzole 100 mg BID
[8] = Dose Level 4: Sorafenib 400 mg BID and Riluzole 100 mg BID
[9] = all dose levels, Riluzole 100 mg BID with sorafenib
[10] = all dose levels, Riluzole 100 mg BID with sorafenib, listed as Riluzole

## Nc1nc2ccc(OC(F)(F)F)cc2s1 [riluzole]
[1]; [3]
  Abdominal Pain: 1
  Alkaline Phosphatase Increase: 0
  Anemia: 0
  Anorexia: 0
  Arthralgia: 0
  Cardiac troponin I increased: 0
  Congestive Heart Failure: 0
  Fatigue: 1
  Hypertension: 0
  Hypokalemia: 0
  Hyponatremia: 0
  Hypophosphatemia: 0
  Lipase Increase: 0
  Lymphocyte Count Decrease: 0
  Maculopapular Rash: 0
  Myocardial infarction: 0
  Neutrophil count decrease: 0
  Palmar-plantar erythrodysesthesia syndrome: 0
  Pruritus: 0
  White Blood Cell Decreased: 0
  Wound complication: 0
[1]; [4]
  Abdominal Pain: 1
  Acute Coronary Syndrome: 0
  Acute Kidney Injury: 0
  Alanine Aminotransferase Increase: 1
  Alkaline Phosphatase Increase: 1
  Alopecia: 0
  Anemia: 0
  Anorexia: 0
  Arthralgia: 1
  Aspartate Aminotransferase Increase: 2
  Ataxia: 2
  Blood Bilirubin Increase: 1
  Blurred vision: 1
  Bullous dermatitis: 0
  Cardiac troponin I increased: 0
  Congestive Heart Failure: 0
  Cough: 1
  Depression: 1
  Diarrhea: 0
  Dizziness: 3
  Dry Mouth: 0
  Dry skin: 3
  Dysarthria: 1
  Dysgeusia: 0
  Dyspepsia: 0
  Dyspnea: 1
  Edema (limbs): 1
  Fatigue: 2
  Fecal Incontinence: 0
  Fever: 0
  Flatulence: 0
  Gastrointestinal Fistula: 0
  Gastroparesis: 1
  Headache: 0
  Hoarseness: 0
  Hypercalcemia: 0
  Hyperglycemia: 0
  Hyperkalemia: 0
  Hypertension: 0
  Hypoalbuminemia: 0
  Hypocalcemia: 0
  Hypokalemia: 0
  Hypomagnesemia: 1
  Hyponatremia: 0
  Hypophosphatemia: 0
  Hypotension: 0
  Hypothyroidism: 0
  Increased blood urea nitrogen: 0
  Insomnia: 2
  Lipase Increase: 0
  Lymphocyte Count Decrease: 0
  Maculopapular Rash: 0
  Mucosal infection: 0
  Mucositis oral: 0
  Muscle weakness: 0
  Myalgia: 0
  Myocardial infarction: 0
  Nausea: 0
  Neutrophil count decrease: 0
  Oral pain: 0
  Palmar-plantar erythrodysesthesia syndrome: 0
  Peripheral Sense Neuropathy: 1
  Platelet Count Decrease: 0
  Pruritus: 0
  Serum amylase increased: 0
  Urinary Tract Infection: 0
  Voice Alteration: 0
  Vomiting: 0
  Weight Loss: 2
  White Blood Cell Decreased: 0
  Would dehiscence: 0
  Wound complication: 0
[1]; drug related AE, any grade, n=35, listed as R
  Dry skin: 0
[1]; of 35 patients
  patients with toxicities attributed to the drug (alone), number: 17
[2]; 100 mg BID with sorafenib, steady state after eight days
  riluzole accumulation through multiple doses: no riluzole accumulation was observed
[2]; DL3, Group 1 ("high" sorafenib Cmin,ss >4 μg/mL; 14 patients)
  riluzole Cmin,ss, geomean: 82.1 ng/mL
[2]; DL3, Group 2 ("low" sorafenib Cmin,ss <4 μg/mL; 6 patients)
  riluzole Cmin,ss, geomean: 74.8 ng/mL
[2]; [5]
  Riluzole trough plasma concentration, D2 Predose, Geomean (CV%): 18.92 (92) ng/mL
  Riluzole trough plasma concentration, D8/9 Predose, Geomean (CV%): 44.79 (50) ng/mL
  Riluzole trough plasma concentration, D10 Predose, Geomean (CV%): 26.27 (80) ng/mL
  Riluzole trough plasma concentration, D15 Predose, Geomean (CV%): 31.11 (72) ng/mL
  Riluzole trough plasma concentration, D2 Predose: 57.32 ng/mL and 10.74 ng/mL and 3.33 ng/mL and 62.45 ng/mL
  Riluzole trough plasma concentration, D8/9 Predose: 78.14 ng/mL and 62.61 ng/mL and 22.29 ng/mL and 36.89 ng/mL
  Riluzole trough plasma concentration, D10 Predose: 68.6 ng/mL and 51.11 ng/mL and 15.26 ng/mL and 8.9 ng/mL
  Riluzole trough plasma concentration, D15 Predose: 75.67 ng/mL and 36.97 ng/mL and 13.85 ng/mL and 24.17 ng/mL
[2]; [6]
  Riluzole trough plasma concentration, D2 Predose, Geomean (CV%): 58.35 (82) ng/mL
  Riluzole trough plasma concentration, D8/9 Predose, Geomean (CV%): 42.93 (50) ng/mL
  Riluzole trough plasma concentration, D10 Predose, Geomean (CV%): 45.97 (68) ng/mL
  Riluzole trough plasma concentration, D15 Predose, Geomean (CV%): 56.72 (79) ng/mL
  Riluzole trough plasma concentration, D2 Predose: 35.07 ng/mL and 95.29 ng/mL and 45.1 ng/mL and 42.18 ng/mL and 142.56 ng/mL and 26.84 ng/mL
  Riluzole trough plasma concentration, D8/9 Predose: 83.1 ng/mL and 69.82 ng/mL and 35.73 ng/mL and 28.19 ng/mL and 47.99 ng/mL and 22.33 ng/mL
  Riluzole trough plasma concentration, D10 Predose: 115.98 ng/mL and 62.36 ng/mL and 39.19 ng/mL and 36.03 ng/mL and 40.55 ng/mL and 20.11 ng/mL
  Riluzole trough plasma concentration, D15 Predose: 170.15 ng/mL and 101.4 ng/mL and 48.51 ng/mL and 35.45 ng/mL and 30.81 ng/mL and 36.43 ng/mL
[2]; [7]
  Riluzole trough plasma concentration, D2 Predose, Geomean (CV%): 59.88 (97) ng/mL
  Riluzole trough plasma concentration, D8/9 Predose, Geomean (CV%): 66.01 (109) ng/mL
  Riluzole trough plasma concentration, D10 Predose, Geomean (CV%): 77.34 (175) ng/mL
  Riluzole trough plasma concentration, D15 Predose, Geomean (CV%): 67.50 (119) ng/mL
  Riluzole trough plasma concentration, D2 Predose: 55.95 ng/mL and 47.37 ng/mL and 28.71 ng/mL and 73.18 ng/mL and 32.02 ng/mL and 30.21 ng/mL and 47.71 ng/mL and 53.1 ng/mL and 56.61 ng/mL and 37.24 ng/mL and 64.09 ng/mL and 19.62 ng/mL and 58.86 ng/mL and 66.84 ng/mL and 18 ng/mL and 41.51 ng/mL and 127.44 ng/mL and 295.14 ng/mL and 250.15 ng/mL and 253.77 ng/mL and 40.63 ng/mL and 119.96 ng/mL
  Riluzole trough plasma concentration, D8/9 Predose: 62.44 ng/mL and 81.2 ng/mL and 455.25 ng/mL and 17.87 ng/mL and 116.11 ng/mL and 43.44 ng/mL and 32.96 ng/mL and 32.87 ng/mL and 90.92 ng/mL and 43.12 ng/mL and 47.28 ng/mL and 18.2 ng/mL and 67.09 ng/mL and 96.47 ng/mL and 83.41 ng/mL and 54.31 ng/mL and 815.72 ng/mL and 6.14 ng/mL and 149.76 ng/mL and 194.16 ng/mL and 57.58 ng/mL
  Riluzole trough plasma concentration, D10 Predose: 69.2 ng/mL and 142.35 ng/mL and 14.45 ng/mL and 127.21 ng/mL and 47.08 ng/mL and 61.84 ng/mL and 47.42 ng/mL and 39.41 ng/mL and 52.51 ng/mL and 13.19 ng/mL and 60.1 ng/mL and 89.82 ng/mL and 76.9 ng/mL and 48.4 ng/mL and 703.83 ng/mL and < LOD and 1368.52 ng/mL and 128.03 ng/mL and 57.99 ng/mL
  Riluzole trough plasma concentration, D15 Predose: 71.35 ng/mL and 60.98 ng/mL and 20.22 ng/mL and 124.67 ng/mL and 49.06 ng/mL and 47.37 ng/mL and 66.2 ng/mL and 68.14 ng/mL and 7.02 ng/mL and 76.1 ng/mL and 85.03 ng/mL and 92.65 ng/mL and 40.12 ng/mL and 882.52 ng/mL and < LOD and 1014.41 ng/mL and 135.37 ng/mL and 80.05 ng/mL
[2]; [8]
  Riluzole trough plasma concentration, D2 Predose, Geomean (CV%): 29.03 (52) ng/mL
  Riluzole trough plasma concentration, D8/9 Predose, Geomean (CV%): 23.10 (35) ng/mL
  Riluzole trough plasma concentration, D10 Predose, Geomean (CV%): 29.86 (36) ng/mL
  Riluzole trough plasma concentration, D15 Predose, Geomean (CV%): 19.53 (61) ng/mL
  Riluzole trough plasma concentration, D2 Predose: 47.38 ng/mL and 36.46 ng/mL and 14.16 ng/mL
  Riluzole trough plasma concentration, D8/9 Predose: 31.53 ng/mL and 25.95 ng/mL and 15.07 ng/mL
  Riluzole trough plasma concentration, D10 Predose: 37.2 ng/mL and 38.88 ng/mL and 18.41 ng/mL
  Riluzole trough plasma concentration, D15 Predose: 33.44 ng/mL and 7.23 ng/mL and 30.81 ng/mL
[2]; Level 1 (n = 4)
  Riluzole Cmin,ss Geometric mean (CV%): 34.93 (64) ng/mL
[2]; Level 2 (n = 6)
  Riluzole Cmin,ss Geometric mean (CV%): 48.84 (65) ng/mL
[2]; Level 3 (n = 22)
  Riluzole Cmin,ss Geometric mean (CV%): 79.72 (153) ng/mL
[2]; Level 4 (n = 3), sorafenib 400 mg BID
  Riluzole Cmin,ss Geometric mean (CV%): 25.98 ng/mL
[2]; Level 4 (n = 3), sorafenib 400 mg BID, listed as Riluzole
  Riluzole Cmin,ss Geometric mean (CV%): 25.98 (25) ng/mL
[2]; [9]
  Riluzole trough plasma concentration, D2 Predose, Total Geomean (CV%): 47.15 (71) ng/mL
  Riluzole trough plasma concentration, D2 Predose, total Median: 47.37 ng/mL
  Riluzole trough plasma concentration, D8/9 Predose, Total Geomean (CV%): 52.57 (112) ng/mL
  Riluzole trough plasma concentration, D8/9 Predose, total Median: 51.15 ng/mL
  Riluzole trough plasma concentration, D10 Predose, Total Geomean (CV%): 55.83 ng/mL
  Riluzole trough plasma concentration, D10 Predose, total Median: 52.51 ng/mL
  Riluzole trough plasma concentration, D15 Predose, Total Geomean (CV%): 51.47 ng/mL
  Riluzole trough plasma concentration, D15 Predose, total Median: 49.06 ng/mL
[2]; [10]
  Riluzole trough plasma concentration, D10 Predose, Total Geomean (CV%): 55.83 (103) ng/mL
  Riluzole trough plasma concentration, D15 Predose, Total Geomean (CV%): 51.47 (177) ng/mL
[2]; among individuals in various sorafenib dose cohorts
  inter-individual variability in plasma riluzole levels, CV in the geometric mean: 35% to 175%
[2]; in vivo
  riluzole Cmin,ss, range: 46 to 793 ng/mL
